These are yes or no findings as the source states them, for the method shown. In cells and extracts the contact can be indirect. Some results given as binding are weak or reduced against the parent protein; the word gives no strength.
Biological target: FoxO1 (human (endogenous in HK-2)) (UniProt Q12778)
Test: co-IP; endogenous proteins; lysate pre-cleared with Protein A+G agarose beads at 4°C for 30 min, then incubated overnight at 4°C with magnetic beads pre-bound with rabbit IgG, anti-S100A2 or anti-FoxO1; washed with TBS; immunoblotting

The chains behind the UniProt entries cited, without tags or fusion partners.
UniProt Q12778: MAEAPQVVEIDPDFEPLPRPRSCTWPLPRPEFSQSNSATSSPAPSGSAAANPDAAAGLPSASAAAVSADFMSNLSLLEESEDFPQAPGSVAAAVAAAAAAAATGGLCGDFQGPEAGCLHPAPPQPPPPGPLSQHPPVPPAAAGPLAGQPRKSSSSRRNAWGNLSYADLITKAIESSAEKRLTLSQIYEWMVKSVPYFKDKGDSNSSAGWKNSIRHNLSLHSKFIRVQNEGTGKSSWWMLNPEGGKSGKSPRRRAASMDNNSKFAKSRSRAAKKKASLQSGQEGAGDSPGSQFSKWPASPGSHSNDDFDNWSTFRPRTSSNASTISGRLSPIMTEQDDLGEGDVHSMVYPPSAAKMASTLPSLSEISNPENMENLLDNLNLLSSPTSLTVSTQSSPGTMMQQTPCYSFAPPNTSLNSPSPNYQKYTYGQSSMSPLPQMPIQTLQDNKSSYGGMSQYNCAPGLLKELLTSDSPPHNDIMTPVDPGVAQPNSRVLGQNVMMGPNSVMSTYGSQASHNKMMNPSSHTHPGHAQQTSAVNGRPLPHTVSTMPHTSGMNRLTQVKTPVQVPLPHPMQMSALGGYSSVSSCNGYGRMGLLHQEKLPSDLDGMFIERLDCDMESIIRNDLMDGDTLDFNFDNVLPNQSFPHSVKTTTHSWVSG
UniProt P29034: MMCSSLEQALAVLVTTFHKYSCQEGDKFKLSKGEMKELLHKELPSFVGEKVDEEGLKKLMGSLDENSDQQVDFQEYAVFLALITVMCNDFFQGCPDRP

S100 calcium-binding protein A2 (from UniProt P29034 1-98)
binding: binds

From paper PMC11464619
